# The campaign covered roughly 360,000 compounds. About 7,500 (2.1%) were called active. The inconclusive results got no clear call from the source; some entries with a clear call stand among them for comparison. Calls follow the shape of the dose curve; as a rule, active = well fitted inhibition curve with a large enough effect; inconclusive = small, poorly fitted or top-dose-only effect, or effect the other way; inactive = flat fitted curve, though single readings scatter. Potencies beside an inconclusive call are fits to weak or partial responses and may not hold up.
# Assay: Nrf2 qHTS screen for inhibitors; also: nearly all actives have a fitted effect of over 60% in size
# Settings: A549 ARE-Fluc reporter, luciferase luminescence, 18-24 h; series mostly up to 46 µM
# Outline: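 Quantitative HTS in A549 cells stably bearing an antioxidant response element-firefly luciferase construct. Inhibition of Nrf2-driven transcription was scored by luminescence after 18-24 h of compound exposure at 37 °C.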
# Potency is read from the fitted curve at half-maximal effect.
row,SMILES,Potency
1,COc1ccc(OCC(O)Cn2c(=N)n(Cc3ccccc3)c3ccccc32)cc1 (centres undefined),"inconclusive: 18.4 µM [falling, single point]"
2,O=C(NCc1ccccc1Br)C1CCCN(C(=O)N2CCOc3ccccc32)C1 (centres undefined),"inconclusive: 3.26 µM [activator, single point]"
3,COCCCNC(=O)Cn1c(=O)n(Cc2ccc(C(=O)NCc3ccc(C)cc3)cc2)c(=O)c2ccccc21,inactive
4,CN(C)c1ccc(-c2nn3c(C4CCCCC4)nnc3s2)cc1,"inconclusive: 0.82 µM [falling, partial curve, poor fit]"
5,COc1ccccc1C(=O)NC(=S)Nc1cccc2cc(O)ccc12,inactive
6,Cc1ccc(NS(=O)(=O)c2ccc(F)cc2)cc1C,inactive
7,Cc1ccc(NC(=O)CSc2nc(C)c(Cc3ccccc3)c(=O)[nH]2)cc1,"inconclusive: 32.6 µM [falling, partial curve, poor fit]"
8,O=C(CNC(=O)C1CCCCC1)OCC(=O)c1ccc2c(c1)CCC2,inactive
9,CCOc1ccc(NC(=O)CCC(=O)NNC(=O)COc2ccccc2C)cc1,"inconclusive: 32.6 µM [activator, single point]"
10,COc1cc(C(=O)N/N=C/c2ccc(OC(=O)c3ccccc3)c(OC)c2)ccc1O,"inconclusive: 18.4 µM [activator, single point]"
11,Cn1c(SCC(=O)NCc2ccc3c(c2)OCO3)nnc1-c1cc2ccccc2cc1O,"inconclusive: 29.1 µM [falling, single point]"
12,O=C(NC(=S)NCc1ccc(Cl)cc1)c1ccco1,active: 16.4 µM
13,CC(=O)Nc1ccc(NC2=CC(=O)c3ccccc3C2=O)cc1,inactive
14,Clc1ccc(-n2nnnc2-c2cnc(-c3ccccn3)nc2-c2cccs2)cc1,"inconclusive: 13 µM [falling, partial curve, poor fit]"
15,CC1=C(c2ccc(C)cc2)S(=O)(=O)N(Cc2ccc(C(=O)NCc3cccc(C)c3)cc2)C1=O,"inconclusive: 6.51 µM [falling, partial curve]"
16,CC(=O)N1c2ccc(S(=O)(=O)N(C)Cc3ccco3)cc2CC1C (centres undefined),"inconclusive: 13 µM [falling, partial curve, poor fit]"
17,O=C(Nc1ccc(Cl)cc1)N1CC=CCC1,"inconclusive: 11.6 µM [activator, partial curve, poor fit]"
18,FC(F)(F)c1cccc(N2CCN(Cc3cccnc3)CC2)c1,"inconclusive: 0.291 µM [falling, full curve, poor fit]"
19,COc1ccccc1CNS(=O)(=O)c1ccc2[nH]c3c(c2c1)CCCCC3,"inconclusive: 16.4 µM [falling, single point]"

# 3 structures out of the list, sorted by heavy-atom count, smallest number first:
row,SMILES,Potency
18,FC(F)(F)c1cccc(N2CCN(Cc3cccnc3)CC2)c1,"inconclusive: 0.291 µM [falling, full curve, poor fit]"
19,COc1ccccc1CNS(=O)(=O)c1ccc2[nH]c3c(c2c1)CCCCC3,"inconclusive: 16.4 µM [falling, single point]"
9,CCOc1ccc(NC(=O)CCC(=O)NNC(=O)COc2ccccc2C)cc1,"inconclusive: 32.6 µM [activator, single point]"

# Source: PubChem BioAssay AID504444 (National Center for Advancing Translational Sciences (NCATS), 2011)
